No constants are given. Whether binding was seen depends on the method and setting. In cells and extracts the contact can be indirect. A yes stands for co-enrichment or nearness to the bait. Other partners may have been found. Where a sequence is shown, tags or fusion partners need not be part of it.
T1: PoAce1 fused with the TAP tag (HA-FLAG) at the C-terminus (Penicillium oxalicum) (UniProt S8AYJ0)
T1 sequence: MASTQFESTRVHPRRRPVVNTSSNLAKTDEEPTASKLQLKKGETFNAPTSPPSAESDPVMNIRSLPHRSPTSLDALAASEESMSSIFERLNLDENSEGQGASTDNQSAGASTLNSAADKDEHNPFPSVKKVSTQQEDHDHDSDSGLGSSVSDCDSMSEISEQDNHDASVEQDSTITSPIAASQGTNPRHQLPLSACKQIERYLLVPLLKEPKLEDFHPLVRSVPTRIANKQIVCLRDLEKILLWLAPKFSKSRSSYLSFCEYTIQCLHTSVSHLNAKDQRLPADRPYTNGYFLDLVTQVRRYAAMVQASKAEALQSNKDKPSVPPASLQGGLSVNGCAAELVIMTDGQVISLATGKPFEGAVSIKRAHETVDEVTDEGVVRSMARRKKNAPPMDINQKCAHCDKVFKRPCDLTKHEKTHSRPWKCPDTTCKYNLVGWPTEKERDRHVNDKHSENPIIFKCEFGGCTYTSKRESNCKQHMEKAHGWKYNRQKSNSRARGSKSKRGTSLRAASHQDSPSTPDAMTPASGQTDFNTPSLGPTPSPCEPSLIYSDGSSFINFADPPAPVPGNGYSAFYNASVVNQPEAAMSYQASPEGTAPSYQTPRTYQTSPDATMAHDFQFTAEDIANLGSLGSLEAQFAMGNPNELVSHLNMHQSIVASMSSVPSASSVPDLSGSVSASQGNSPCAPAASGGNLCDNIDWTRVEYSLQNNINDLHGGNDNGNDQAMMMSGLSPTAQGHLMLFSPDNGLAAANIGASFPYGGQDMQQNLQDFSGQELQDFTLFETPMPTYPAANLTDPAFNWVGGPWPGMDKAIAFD

Sequences of proteins named here, by UniProt entry; tags and fusion partners are left off.
UniProt S7ZFE3: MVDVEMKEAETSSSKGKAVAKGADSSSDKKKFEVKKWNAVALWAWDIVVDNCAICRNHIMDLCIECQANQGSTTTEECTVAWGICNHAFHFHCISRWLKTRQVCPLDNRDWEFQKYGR


molecular target: T1, PoAce1 fused with the TAP tag (HA-FLAG) at the C-terminus (Penicillium oxalicum); experiment: affinity purification with mass spectrometry; TAP-MS with PoAce1-HA-FLAG as bait from mycelia grown in VMMG; anti-FLAG M2 gel, 3xFLAG peptide elution, then anti-HA resin, 8 M urea elution; LC-MS/MS; WT 114-2 as control; biological triplicates

| Molecule | binding |
| --- | --- |
| PoRbx1 (from UniProt S7ZFE3 1-118) | binds |
| PoAsh1 (protein, UniProt S8ALA0 1-797) MSTHVRVKWQHEPDDTTSLDVPVQLLTPENSRSETSSNNEVTVAEEKVAPRRRSTRVARASLQATEAEEITTPYIEDTAASSSQAYVDSLVEAKRTRSSLRHSIAVMERSNDIAPPDDNTTMADYNPPLPNTPSSNTSQEQPVDEVASSTQQRTLRKRVAKVLAEVAKTPQSETAPQPNLQGPVRKSTRLSLVSKPLDLLERTSAVLGKRSRELSQKSKEPSRRSSLRPRVTAPKQDALASAPEPPAAKKRRVSESDLSKLRDIEAEVPSEEPTAPPPPPRYKPKKWLAHGLYTGQEPSDSPPKQRRSKNSSKTTTRPAQRRLLPMPMFGGARLIQSGRDYVLPFDVFSPLPPGQPKPDEWRKTNKNVFVGDAASEWKANKKLELSTCMCEEDTGCDENCQNRYMFYECDSGNCRLGPECGNRNFSELKHRTKAGGKYNIGVEVIKTSDRGYGVRSNRTFEPNQIIVEYTGEIITQFECERRMRTVYKNNECYYLMYFDQNMIIDATRGSIARFVNHSCEPNCRMEKWTVAGKPRMALFAGDRGIMTGEELSYDYNFDPYSLKNVQQCRCGSENCRGILGPRPKDKDQRAKLEEKAQAEKEAKKPLGKKRKLVDAESTASQKGKKRKVLNAKSIKASVKKVVSKATARGKAGTTKSAKATTTSSRSKTTKAVNLPKVKAASRVKATVEKGPRSKGKAAKTTTASSAKGSSVLKRPSLETKKKILARAKGTSRASPKKSPAKPKKGQTKSPRKPAGKKALAKSPAKSRVPTSKAKRTLAGSVKKVTKSVIRAVKGKSA | binds |
| PoCul1 (protein, UniProt S7Z946 1-764) MAPAMPQTPHKDDLTETWSFLEAGIDSVMLKLEEGVDMKTYMALYTAVHNFCTSQKAVANHQGLQAHRGAHLLGEELYKLLGEYLSRHLKAVLNESKGHAEEALLGFYIREWTRFTTAAKYVNHLFSYLNRHWVKREIDEGKKNVYDVYTLHLVKWKDDFFENVHDKVMDAVLNLIEKQRNGETIEQSQIKSIVDSFVSLGLDENDSKKSTLEVYRRYFQRPFIAATRTYYENESRQFVAENSVVEYMKKAETRLDEEKARVGLYLHPDVAKDLTDTCLDVLVTAHSTLLRDEFQVLLDNERQEDLARMYRLLSRIKDGLDPLRSTFENHVRRAGLAAVEKVASDSENFEPKLYVDALLQVHTRYQNLVDDAFNGDSEFVRSLDNACREFVNRNRICQSTSTKSPELLARYTDSLLKKGSKAAEESELEDMLVQIMTVFKYIEDKDVYQKFYSKMLAKRLVHVSSVSDDAETSMISKLKEACGFEYTNKLQRMFQDIQISKDLNASYKDWQDKVLDDDDRKRLVDAHYQILGTGFWPLQAPTSDFIAPIEINRTAERFSKFYFDKHNGRKLTWLWQLCKGEVKANYIKNAKVPYTFQVSTYQMGILLLFNEADTISYNDIQAATNLVPEILDPNLSIFLKARVLTISPEGSKPDPSTTFSLNYNFKNKKIKVNLNIQIKSEQKVEVDDTHKTIEEDRKLLLQSAIVRIMKSRKKMRHVQLVNEVIQQVKSRFPPQVPDIKKNIEALMEKDYIERLEGDEISYIA | binds |
| PDE_09763 (uncharacterized protein) (protein, UniProt S7ZWH9 1-267) MAVAGCRLQDAGCRLWVVGCGLRVAGREWRTAGHPLFLDVINQEHPMHRDPCRPVGPPARSARCVTVAQSRAPWCLALLRRVPPWPIEAALSSHGWIWRPGRISNTIEQQNSTRRASKAQWEMDDTCNCDIALSDLQYRSLGIQASKRPPTTCYPPLGESTSTEKWTVLSMFSGRSCLSRTEMWSTASMQTSHETLSYSATVDHHLEHRISLKLDWRTLSQLDNRGNGLCTLAVHTATVYPVVPKGSHFDWNNSSWEGSEFDWTYIY | binds |
| PoMub1 (protein, UniProt S7ZK88 1-574) MSTFKLRCANSRIQECPNEGTYACASCKLVKYCSRKCQLGHWPAHKAECKDAVGQISWEPAWVADQREPHFFTSEDQPWGLRKRLWSRFPAFDILKLAENEGVTHSQDLQLLFSACGDLGNVVQTLASLPDSWNQGIELTINDADVDCIGRSVVMLLVAMCIDNVNDAVDSMIHIWYSAFIRKSDADMLQSRITPMIRRVCNTIKDQDPNKLYAKTWKRDTFSVKVILKQKSWMDLLGIFDRLGQIKHDAASNSRLKVTMAPHRQDFRDELMMKMPIAQRLAHQKYLLDGLVLPFGHPREEFSEANPFLYRPPCVWQLNDALNPIFGWPLEDVLETPGAASENDVYGKLLNYLRGRLRSCISRMSISPTAFVLYQMNPFRLLEVLDLGYFDRIDATGITDRDPDNPLSALSTYIPLLKDTKRNPCATLILFFETAVKSCISDGFITEEVEQNPRVIEILGRLLPPRMSSFVWEPALLIFSQAISLLISYDEVFIEYLNQRGFEAASKALGAGLKDSNTIISEFPYQVDPQPENQEPFNKLMMRLRESVDGKEVYLEWRREVQSEDRPSDSRGGG | binds |
| PDE_00208 (uncharacterized protein) (protein, UniProt S7Z423 1-890) MELSRQEYPALLATLHPTQASTVLTDRIRLINKINSDIADFLQERRRVEEAYAQGLRKLASRPPVDNGVAMGIFQIPWQRIINATETLATSHETLATKIEEDVERPLREYSAKNAEMQSMPGVQNNLSSLAKNLEAAQKKVDKAKGKGTKGASSLSGAIAAAEEVNQQWESRAPFVYEQLQAADESRLNHLRDVLTQLETHELDQVERCREAAESCLNVLLNVQTADEIKTFAAKMAGKRAQFTPRLSSRQNSQADVNPAASIAPSTADSEAPTAPPAAAPLAPPSRIQDDAASQRSGRSETLAPAGTSSQTPPAPEPLPRHTPLGGLRRLGTVMNRRKSVVPPMGGSSDRKAEKKHRSPFSSFMRSDSSREAQIPESPPSTADRPGTSLTEESSLRNENISHDTDTVGAMAPTFASQPETSAPNENTPRSEEISMTNGTSQLQPSQPNVDSEGFTERPSSVDEITRAQREASAVEDSGVNLTIRDQPIFEDESQAKKAMDDMANTLRMRAPQPGIRRNAGTLRGRRDVRNTVFVPNAGADMTGSSAGSDQFGPSSPRHAASPTNTIDDHAMSDTTSVRSGHTAHSLGPSIHPELHEPGLNASIIETVSAWLFEGKVTKSSVVGELALANNPQPGHSVGKVLIRLDNFASLEKVAANPHFVHESNGEGIEDKRGEYEIQLGSISRSMPTVAFKYQVHIDPMNPSAYSPVIFKPAWNIEENQASAIIFYSLNPSFISASAGSITLKNVALTVALDVAPEDEVTKQPRESVAHAASAVMYPNSGAVFRRKTSSVIWKIPELEVKAPGSGGEDGKFLVRFTTTTPGPRKGNVEARFEFTNTETGSRLGISRAPAQASESEVDPFADSGKLPSPSPWESVPTTRKLVAGKYVSA | binds |
| PoPyc2 (protein, UniProt S7ZK70 1-1193) MAAPSRQPEEAIDDSEFIEDHEEHHQDSVHRRLRANSTIMHFQKILVANRGEIPIRIFRTAHELSLQTVAVFSHEDRYGMHRQKADEAYMIGKRGQYTPVGAYLAGDEIIKIAVEHGVHLIHPGYGFLSENAEFARNVEKAGIVFVGPTPDTIDALGDKVSARRLAIKCNVPVVPGTEGPVERYEEVKTFTDTYGFPIIIKAAFGGGGRGMRVVREQADLRDAFERATSEARSAFGNGTVFVERFLDKPKHIEVQLLGDNQGNVVHLFERDCSVQRRHQKVVEIAPAKDLPIEVRDKILADAVRLAKSVKYRNAGTAEFLVDQQNRYYFIEINPRIQVEHTITEEITGIDIVAAQIQIAAGATLEQLGLTQDRISTRGFAIQCRITTEDPSKGFSPDTGKIEVYRSAGGNGVRLDGGNGFAGAVITPHYDSMLVKCTCRGSTYEIARRKVLRALVEFRIRGVKTNIPFLASLLSHPTFIDGTCWTTFIDDTPELFALVGSQNRAQKLLAYLGDVAVNGSSIKGQMGEPKLKGEIIKPILTDASGAPIDVSVPCQKGWKQILDREGPAAFAKAVRANKGCLIMDTTWRDAHQSLLATRVRTIDMLNIAHETSHALSNAYSLECWGGATFDVAMRFLYEDPWDRLRKLRKAVPNIPFQMLLRGANGVAYSSLPDNAIYHFCKQAKKYGVDIFRVFDALNDVDQLEVGIKAVQQAGGVVEATICYSGDMLNPHKKYNLEYYLALAEKIVALGTHVLGIKDMAGVLKPQAARILISALRERYPDLPIHVHTHDSAGTGVASMIACAQAGADAVDAATDSLSGMTSQPSIGAILASLSGTEHDPHLDVAQVRALDSYWAQLRLLYSPFEAGLTGPDPEVYEHEIPGGQLTNLIFQASQLGLGQQWAETKKAYEAANDLLGDIVKVTPTSKVVGDLAQFMVSNKLSEQDVVDRAAELDFPGSVLEFLEGLMGQPFGGFPEPLRSRALRNRRKLDKRPGLYLDPLDLPGIKNQIREKFGSATECDVASYAMYPKVFEDYRKFVQKYGDLSVLPTRYFLARPEIGEEFHVELEKGKVLILKLLAIGPLSEQTGQREVFYEVNGEVRQVSVDDNKASVDNVARPKADVGDSSQVGAPMSGVVVEIRVHDGHECKKGDPIAVLSAMKMEMVISAPHSGKVSGLLVKEGDSVDGQDLICRITKA | binds |
| PoSkp1 (protein, UniProt S7ZF79 1-160) MSSQITLTSSDGVDITFDRAVAERSILIKNMLEDLGDCGEAIPIPNVNEAVLKKVIEWCEHHKNDPVTAADDDDNRRKTTDIDEWDQKFMQVDQEMLFEIILAANYLDIKALLDVGCKTVANMIKGKSPEEIRKTFNIQNDFTPEEEDQIRRENEWAEDR | binds |

— PMC11750091
